From article PMC11383945
No constants are given. Whether binding was seen depends on the method and setting. In cells and extracts the contact can be indirect. Some binding calls cover weakened binding; strength is not graded here.

By UniProt entry, the sequences of proteins in these tests, tags left out. Where a name states a change or a piece, a line headed by the entry shows the natural chain unless it says otherwise.
UniProt P35240: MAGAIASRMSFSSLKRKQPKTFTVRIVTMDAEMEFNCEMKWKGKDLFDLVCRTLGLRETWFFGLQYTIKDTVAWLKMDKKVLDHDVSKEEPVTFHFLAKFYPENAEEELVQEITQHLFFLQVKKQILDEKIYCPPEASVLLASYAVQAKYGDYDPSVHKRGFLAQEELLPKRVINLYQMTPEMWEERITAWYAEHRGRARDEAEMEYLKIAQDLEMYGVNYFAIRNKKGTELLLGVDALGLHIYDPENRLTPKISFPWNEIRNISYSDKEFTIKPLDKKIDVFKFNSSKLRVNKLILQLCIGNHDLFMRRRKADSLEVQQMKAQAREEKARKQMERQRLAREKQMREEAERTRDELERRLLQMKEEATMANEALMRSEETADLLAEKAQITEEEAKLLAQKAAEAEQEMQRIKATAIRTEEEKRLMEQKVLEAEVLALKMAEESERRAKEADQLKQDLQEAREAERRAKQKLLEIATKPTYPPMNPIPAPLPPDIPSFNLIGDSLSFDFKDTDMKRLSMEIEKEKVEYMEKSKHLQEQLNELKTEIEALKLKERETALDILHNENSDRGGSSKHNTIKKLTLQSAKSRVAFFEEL
UniProt P35222: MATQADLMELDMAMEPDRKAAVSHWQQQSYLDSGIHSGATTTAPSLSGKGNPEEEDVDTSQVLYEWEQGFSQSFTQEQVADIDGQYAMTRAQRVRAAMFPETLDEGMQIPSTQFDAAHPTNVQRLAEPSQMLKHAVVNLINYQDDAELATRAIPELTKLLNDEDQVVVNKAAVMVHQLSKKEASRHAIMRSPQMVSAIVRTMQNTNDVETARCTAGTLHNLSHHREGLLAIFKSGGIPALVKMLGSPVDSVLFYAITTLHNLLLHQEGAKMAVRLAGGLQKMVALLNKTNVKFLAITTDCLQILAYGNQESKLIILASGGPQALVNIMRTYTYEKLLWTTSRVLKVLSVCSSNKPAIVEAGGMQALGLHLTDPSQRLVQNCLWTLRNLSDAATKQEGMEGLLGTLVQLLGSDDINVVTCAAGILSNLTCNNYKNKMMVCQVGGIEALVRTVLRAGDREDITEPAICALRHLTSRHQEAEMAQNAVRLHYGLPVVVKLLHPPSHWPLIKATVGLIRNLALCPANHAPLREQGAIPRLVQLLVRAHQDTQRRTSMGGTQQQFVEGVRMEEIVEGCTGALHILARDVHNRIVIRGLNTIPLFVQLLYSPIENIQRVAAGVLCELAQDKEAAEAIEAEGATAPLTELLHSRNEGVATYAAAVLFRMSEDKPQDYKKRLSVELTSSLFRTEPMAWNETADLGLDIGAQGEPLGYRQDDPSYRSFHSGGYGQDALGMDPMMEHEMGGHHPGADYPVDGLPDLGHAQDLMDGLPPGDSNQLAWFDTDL

Tests used:
[1] = biological target: Merlin^S13A, FLAG-tagged, doxycycline-inducible (human) (UniProt P35240); assay: co-IP; FLAG immunoprecipitation (FLAG antibody beads, 4 h at 4 °C) from M10G lysates in JIES buffer (100 mM NaCl2, 20 mM Tris-HCl pH 7.4, 5 mM MgCl2, 0.5% NP40), doxycycline 1 μg/ml; immunoblot for β-catenin
[2] = biological target: Merlin^S13D, FLAG-tagged, doxycycline-inducible (human) (UniProt P35240); assay: as above

β-catenin (endogenous, M10G meningioma cells) (from UniProt P35222 1-781)
binding [1]: no binding | binding [2]: binds
